Test results as given in paper PMC7117731.
These are yes or no findings as the source states them, for the method shown. In cells and extracts the contact can be indirect. A result given as binding can be weak or reduced; the word gives no strength. Tags and fused reporters may be left off the sequences shown.

Molecular target: flag-tagged Cspg4 (zebrafish chondroitin sulfate proteoglycan 4) (zebrafish)
Test: co-IP; HEK-293T cells co-transfected with Cspg4-FLAG and Wnt11-HA; lysis buffer 50 mM Tris HCl pH 7.4, 150 mM NaCl, 1 mM EDTA, 1% Triton X-100; Anti-FLAG M2 magnetic beads precipitate Cspg4-FLAG; blot with anti-HA

binding: binds
B1: HA-tagged Wnt11 (zebrafish) (ligand, UniProt O73864 24-354)
chain: ISWLGLTINGSSVGWNQTHHCKLLDGLVPDQQQLCKRNLELMHSIVRAARLTKSACTSSFSDMRWNWSSIESAPHFTPDLAKGTREAAFVVSLAAAVVSHAIARACASGDLPSCSCAAMPSEQAAPDFRWGGCGDNLRYYGLQMGSAFSDAPMRNRRSGPQDFRLMQLHNNAVGRQVLMDSLEMKCKCHGVSGSCSVKTCWKGLQDISTISADLKSKYLSATKVIPRQIGTRRQLVPREMEVRPVGENELVYLVSSPDYCTQNAKQGSLGTTDRQCNKTASGSESCGLMCCGRGYNAYTEVLVERCQCKYHWCCYVSCKTCKRTVERYVSK
